Laboratory results published in PubChem BioAssay AID1347076 (National Center for Advancing Translational Sciences (NCATS), 2019).
Screen size: about 400,000 compounds; about 13,000 (3.2%) were called active. The inconclusive results got no clear call from the source; some entries with a clear call stand among them for comparison. The call rests on the fitted dose curve; in most records, active means well fitted cell-killing curve with a large enough effect; inconclusive means small, poorly fitted or top-dose-only effect, or effect the other way; inactive means flat fitted curve, though single readings scatter. Potencies of inconclusive entries are doubtful fits and often do not repeat.
On the % scale 0 is the no-effect control and ±100 the full control effect; potency means the concentration at half of the fitted maximal effect.

Test: qHTS assay for MDR1-selective chemotherapeutics: Primary screen using the drug-selected MDR subline cells KB-V1; further: nearly all actives have a fitted effect of over 60% in size
Conditions: KB-V1 MDR cells viability, CellTiter-Glo, 72 h; activity change, negative = cytotoxicity: at 46.1 µM (top of the series)
Summary of the method: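 In this primary screen, KB-V1 cells overexpressing P-gp are incubated with library compounds (lowest to highest concentration) for 72 h at 37 degrees C before a luminescent ATP viability read.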
For CCOc1ccc(N(CC(=O)Nc2cccc(N(C)S(C)(=O)=O)c2)S(=O)(=O)c2ccccc2)cc1, the Potency was inconclusive: 23.1 µM [cytotoxic, partial curve].
In the case of Cc1cccc2sc(N(CCCN(C)C)C(=O)c3cc4ccccc4oc3=O)nc12, the “activity change, negative = cytotoxicity” value is reported as inactive: 0%.
With COc1ccccc1C(CNC(=O)CN1C(=O)NC(C)(c2ccc3ccccc3c2)C1=O)N1CCCC1 (configuration not stated) the “activity change, negative = cytotoxicity” value was inactive: -1.05%.
With O=C(Nc1cccc(S(=O)(=O)N2CCOCC2)c1)C1COc2ccccc2O1 (configuration not stated) the “activity change, negative = cytotoxicity” value was inactive: -0.119%.
With O=C(Nc1nnc(-c2ccncc2)o1)c1cccc(N2C(=O)CCC2=O)c1 the “activity change, negative = cytotoxicity” value was inactive: 4.82%.
With Cc1cc(/C(N)=N/OC(=O)Nc2cccc(C(F)(F)F)c2)no1 the Potency was inconclusive: 11.6 µM [rising, partial curve, poor fit].
For C=CCSc1nc2sc3c(c2c(=O)n1-c1ccc(C)cc1)CCN(C)C3, the Potency was inconclusive: 0.0052 µM [cytotoxic, full curve].
With CC(O)CNC(=O)Cc1cc(=O)[nH]c(=O)[nH]1 (configuration not stated) the “activity change, negative = cytotoxicity” value was inactive: 0%.
In the case of O=C(O)c1ccc(/C=N/NC(=O)c2cc(-c3cccs3)nc3ccccc23)cc1, the Potency is reported as inconclusive: 10.3 µM [rising, partial curve].
With CC(C)(C)c1ccc(C2Sc3ccccc3NC3=C2C(=O)c2ccccc23)cc1 (configuration not stated) the Potency was inconclusive: 16.4 µM [cytotoxic, single point].
For CN(C(=O)c1ccc(NC(=O)Cc2ccc(NC(=O)C3CCN(C(=O)CCc4ccccc4)CC3)cc2)cc1)C1CC1, the “activity change, negative = cytotoxicity” value was inactive: 0%.
With COc1ccc(-n2c(C)cc(C(=O)CSc3ccc(NC(C)=O)cc3)c2C)cc1 the Potency was inconclusive: 2.59 µM [cytotoxic, full curve].
For Cc1ccc(Cl)cc1-c1cc(C(=O)N2CCN(c3ccncc3)CC2)[nH]n1, the “activity change, negative = cytotoxicity” value was inactive: 19.7%.
For CCOc1ccccc1NC(=O)c1nc(SCc2ccccc2F)ncc1Cl, the “activity change, negative = cytotoxicity” value was inactive: 2.61%.
In the case of COc1ccccc1Cc1c(-c2ccc(C#N)cc2)nc2ccc(C)cn12, the Potency is reported as inconclusive: 16.4 µM [cytotoxic, partial curve].
For O=C(OCC(=O)N1CCOCC1)c1cc(F)c(F)cc1Cl, the “activity change, negative = cytotoxicity” value was inactive: 13.1%.
For Cc1nc2ncnn2c(N2CCC(C(=O)NCC3CCCO3)CC2)c1Cc1ccccc1 (configuration not stated), the “activity change, negative = cytotoxicity” value was inactive: 9.39%.
With CC(=O)Nc1cc([N+](=O)[O-])ccc1OCc1ccccc1 the Potency was active: 18.4 µM.
In the case of C=Cc1ccc(Cn2c(C)c(C(=O)NCc3ccc4c(c3)OCO4)sc2=O)cc1, the Potency is reported as inconclusive: 16.4 µM [cytotoxic, partial curve].
In the case of Cn1cccc1/C=C1\SC(=O)N(c2ccccc2)C1=O, the Potency is reported as inconclusive: 16.4 µM [cytotoxic, single point].
For O=C1CC(c2cccc([N+](=O)[O-])c2)c2ccc3ccccc3c2N1 (configuration not stated), the Potency was active: 13 µM.
With COc1cc(SC)ccc1C(=O)NCc1ccc(C)cc1 the “activity change, negative = cytotoxicity” value was inactive: 0%.
In the case of COc1ccc(NC(=O)C(c2ccc(C#N)cc2)n2c(=O)c(-c3cc4ccccc4[nH]3)nc3ccccc32)cc1 (configuration not stated), the Potency is reported as inconclusive: 20.6 µM [cytotoxic, partial curve, poor fit].
With c1ccc(-c2ccc(-c3cnc4n3CCCCC4)cc2)cc1 the Potency was inconclusive: 23.1 µM [cytotoxic, single point].
With COc1ccc(C(C)=O)cc1CN1C(=O)NC2(CCCCC2C)C1=O (configuration not stated) the Potency was inconclusive: 25.9 µM [cytotoxic, partial curve, poor fit].
With CCCCCCn1c(COc2ccccc2F)nnc1SCC(=O)N1c2ccccc2NC(=O)C1(C)C the Potency was inconclusive: 14.6 µM [cytotoxic, partial curve, poor fit].
With Cc1nnc(SCC(=O)NC2CCCC2)n1C(C)C the Potency was inconclusive: 16.4 µM [rising, single point].
With CC(CNS(=O)(=O)c1ccc(Cl)cc1)n1cncn1 (configuration not stated) the Potency was inconclusive: 32.6 µM [rising, single point].
With CC1CCN(CCCNC(=O)c2nn(C)c3c2CS(=O)(=O)c2ccccc2-3)CC1 the Potency was inconclusive: 29.1 µM [rising, single point].
With COc1ccc(/C=N\Nc2ccc([N+](=O)[O-])cc2)c(C(=O)O)c1OC the Potency was inconclusive: 5.8 µM [rising, full curve].
For Cc1csc(NC(=O)CSc2nnc3c4ccccc4nc(C(C)(C)C)n23)n1, the Potency was inconclusive: 20.6 µM [cytotoxic, single point].
In the case of COc1cccc(/C=C/C(=O)c2cccc([N+](=O)[O-])c2)c1OC, the Potency is reported as inconclusive: 25.9 µM [cytotoxic, single point].
For O=C(C1CC(=O)N(c2ccc3c(c2)OCCO3)C1)N1CCN(c2ccccc2)CC1 (configuration not stated), the Potency was inconclusive: 9.2 µM [cytotoxic, partial curve, poor fit].
With COc1ccc(CCC2CCNCC2)cc1 the “activity change, negative = cytotoxicity” value was inactive: 4.75%.
For CCCNC(=O)c1cc2nc(-c3ccc(Br)cc3)cc(C(F)(F)F)n2n1, the “activity change, negative = cytotoxicity” value was inactive: -11.6%.
With Fc1ccc(Nc2ccnc(Nc3ccc(F)cc3)n2)cc1 the Potency was active: 14.6 µM.
In the case of COc1ccc(-c2ccc(CN3C(CC(C)C)C(=O)N(Cc4cn(CC5CCCCC5)nn4)CCS3(=O)=O)cc2)cc1OC (configuration not stated), the Potency is reported as inconclusive: 29.1 µM [rising, single point].
In the case of CCOC(=O)c1sc(=NC(=O)/C=C/c2ccccc2)n(C)c1C, the activity change, negative = cytotoxicity is reported as inconclusive: 0%.
For O=C1c2cccc3cccc(c23)C(=O)N1CCCN(C(=O)c1cccs1)c1cccc(F)c1, the Potency was inconclusive: 14.6 µM [cytotoxic, partial curve].
For O=C(COc1ccc(F)cc1)Nc1nc2c(s1)CCCC2, the Potency was inconclusive: 18.4 µM [cytotoxic, single point].
With CCOc1ccc(NS(=O)(=O)c2ccc(C(=O)N3CCCC3)cc2)cc1 the Potency was inconclusive: 18.4 µM [cytotoxic, single point].
In the case of O=c1[nH]c(CN2CCN(Cc3ccccc3)CC2)nc2scc(-c3ccccc3)c12, the Potency is reported as inconclusive: 23.1 µM [cytotoxic, single point].
With O=C(CC12CC3CC(CC(C3)C1)C2)NC(=S)Nc1ccc(CN2CCOCC2)cc1 the “activity change, negative = cytotoxicity” value was inactive: 28.9%.
For COc1cc(C(=O)N2CCc3ccccc32)ccc1OCc1c(C)noc1C, the Potency was inconclusive: 4.61 µM [cytotoxic, full curve].
In the case of COc1ccc(/C(C)=N/NC(=O)C(NC(=O)c2ccccc2)c2n[nH]c(=O)c3ccccc23)c(OC)c1 (configuration not stated), the “activity change, negative = cytotoxicity” value is reported as inactive: 12.4%.
With O=C(NC(=S)Nc1nc2ccccc2s1)c1cccs1 the Potency was inconclusive: 23.1 µM [cytotoxic, single point].
For O=C(Nc1cccnc1)c1ccccc1-c1nc(-c2ccccc2F)no1, the Potency was inconclusive: 11.6 µM [cytotoxic, partial curve, poor fit].
With CCOc1ccccc1NC(=O)C(CC)Sc1nc2ccncc2[nH]1 (configuration not stated) the Potency was “inactive”.
For COc1cccc(N(CC(=O)NCCSCc2ccc(Cl)cc2)S(C)(=O)=O)c1, the Potency was inconclusive: 2.59 µM [cytotoxic, full curve].
For O=C(CNc1cccc(S(=O)(=O)N2CCCC2)c1)Nc1ccc(F)cc1F, the Potency was inconclusive: 11.6 µM [cytotoxic, partial curve].
For O=C(c1nc2ncccn2n1)N1CCN(c2ccc(F)cc2)CC1, the Potency was inconclusive: 5.8 µM [rising, partial curve].
For O=C(CSc1ccc(Cl)cc1)N1CCC(c2nc3ccccc3s2)CC1, the Potency was active: 10.3 µM.
With O=C(NC(Cc1ccc(F)cc1)C(=O)O)c1ccccc1 (configuration not stated) the Potency was inconclusive: 18.4 µM [rising, partial curve, poor fit].
For CN(Cc1ccccc1)C(=O)CCS(=O)(=O)c1ccc2c(c1)n(C)c(=O)c(=O)n2C, the Potency was inconclusive: 29.1 µM [rising, single point].
With O=S(=O)(c1ccccc1)N(CC(F)(F)F)c1ccc(C(O)(C(F)(F)F)C(F)(F)F)cc1 the Potency was inconclusive: 29.1 µM [cytotoxic, partial curve, poor fit].
With FC(F)(F)c1cccc(Sc2nc(-c3ccccc3)nnc2C(F)(F)F)c1 the Potency was inconclusive: 29.1 µM [cytotoxic, single point].
With CCN1C[C@@H]2[C@@H]3C(=O)N(Cc4ccccc4)C(=O)[C@@H]3[C@](Cc3ccccc3)(C1=O)N2C(=O)c1ccc(Cl)c(Cl)c1 the Potency was active: 18.4 µM.
For COc1ccc(CCNC(=O)C2CCN(S(=O)(=O)N3CCC(C)CC3)CC2)cc1OC, the Potency was active: 20.6 µM.
For CS(=O)(=O)Nc1ccc(C2=NN(S(C)(=O)=O)C(c3ccc4nccnc4c3)C2)cc1 (configuration not stated), the Potency was inconclusive: 29.1 µM [rising, single point].
With CN(Cc1ccco1)C(=O)c1cccc(S(=O)(=O)N2CCN(Cc3ccccc3)CC2)c1 the “activity change, negative = cytotoxicity” value was inactive: -1.8%.
For COc1ccc(NC(=O)N(C)[C@H]2C[C@H]3c4[nH]c5ccc(-c6ccc(OC)cc6)cc5c4CCN3C[C@H]2[C@H](C)O)cc1, the Potency was inconclusive: 25.9 µM [cytotoxic, single point].
In the case of CC(C)c1ccc(NS(=O)(=O)c2ccc3nc(-c4ccccc4)[nH]c3c2)cc1, the “activity change, negative = cytotoxicity” value is reported as inactive: 0%.
In the case of CCOc1cc(-c2n[nH]c(=S)n2Cc2ccccc2)ccc1OC(F)F, the Potency is reported as inconclusive: 29.1 µM [cytotoxic, single point].
For O=S1(=O)C=CC(N2CCOCC2)C1 (configuration not stated), the activity change, negative = cytotoxicity was inconclusive: 52%.
In the case of COc1ccc(NCc2cc3cc4c(cc3n(CC(=O)Nc3cc(C)ccc3C)c2=O)OCCO4)cc1, the Potency is reported as inconclusive: 3.66 µM [cytotoxic, partial curve, poor fit].
For Cc1ccc2nc(NC(=O)c3ccccc3F)sc2c1, the Potency was inconclusive: 6.51 µM [cytotoxic, partial curve, poor fit].
With Cc1ccc(NC(=O)c2oc3ccccc3c2NC(=O)c2ccc3c(c2)OCO3)cc1 the Potency was inconclusive: 1.16 µM [cytotoxic, full curve].
